From the supplement of paper PMC12819154, “High-throughput peptide-centric local stability assay extends protein–ligand identification to membrane proteins, tissues and bacteria” (Nature Structural & Molecular Biology, 2025)
This is one part of the list. Most values lie at the level of the controls, where differences are scatter.

Amino acid sequences for entries named in this document (tags omitted). A change or cut given only in a name is not applied to a line headed by its entry.
UniProt Q96KC8: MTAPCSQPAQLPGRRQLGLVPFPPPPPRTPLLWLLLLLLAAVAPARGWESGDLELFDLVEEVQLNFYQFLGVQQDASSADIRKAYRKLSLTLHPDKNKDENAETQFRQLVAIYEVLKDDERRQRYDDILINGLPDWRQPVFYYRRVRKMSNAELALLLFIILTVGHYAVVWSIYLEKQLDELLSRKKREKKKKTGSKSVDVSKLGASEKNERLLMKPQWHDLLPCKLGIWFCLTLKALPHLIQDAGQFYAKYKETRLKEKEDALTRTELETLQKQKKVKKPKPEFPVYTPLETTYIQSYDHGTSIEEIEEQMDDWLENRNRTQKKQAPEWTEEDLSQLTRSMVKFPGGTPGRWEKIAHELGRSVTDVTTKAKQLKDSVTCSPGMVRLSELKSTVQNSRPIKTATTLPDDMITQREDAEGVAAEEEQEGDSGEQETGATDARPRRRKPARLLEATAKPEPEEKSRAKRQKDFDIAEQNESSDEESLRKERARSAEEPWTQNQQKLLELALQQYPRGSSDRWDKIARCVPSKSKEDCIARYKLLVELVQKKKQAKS
UniProt Q96MX6, whole entry: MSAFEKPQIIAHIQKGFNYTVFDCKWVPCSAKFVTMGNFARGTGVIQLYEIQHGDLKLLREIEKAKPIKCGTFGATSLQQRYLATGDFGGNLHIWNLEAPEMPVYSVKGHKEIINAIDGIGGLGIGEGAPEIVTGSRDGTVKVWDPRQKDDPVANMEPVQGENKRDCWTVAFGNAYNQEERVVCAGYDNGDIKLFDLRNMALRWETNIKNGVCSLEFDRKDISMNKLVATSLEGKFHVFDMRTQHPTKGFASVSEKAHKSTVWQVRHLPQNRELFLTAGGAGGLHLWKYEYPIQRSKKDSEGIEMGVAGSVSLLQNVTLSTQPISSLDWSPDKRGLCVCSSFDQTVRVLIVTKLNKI
UniProt Q96PY6: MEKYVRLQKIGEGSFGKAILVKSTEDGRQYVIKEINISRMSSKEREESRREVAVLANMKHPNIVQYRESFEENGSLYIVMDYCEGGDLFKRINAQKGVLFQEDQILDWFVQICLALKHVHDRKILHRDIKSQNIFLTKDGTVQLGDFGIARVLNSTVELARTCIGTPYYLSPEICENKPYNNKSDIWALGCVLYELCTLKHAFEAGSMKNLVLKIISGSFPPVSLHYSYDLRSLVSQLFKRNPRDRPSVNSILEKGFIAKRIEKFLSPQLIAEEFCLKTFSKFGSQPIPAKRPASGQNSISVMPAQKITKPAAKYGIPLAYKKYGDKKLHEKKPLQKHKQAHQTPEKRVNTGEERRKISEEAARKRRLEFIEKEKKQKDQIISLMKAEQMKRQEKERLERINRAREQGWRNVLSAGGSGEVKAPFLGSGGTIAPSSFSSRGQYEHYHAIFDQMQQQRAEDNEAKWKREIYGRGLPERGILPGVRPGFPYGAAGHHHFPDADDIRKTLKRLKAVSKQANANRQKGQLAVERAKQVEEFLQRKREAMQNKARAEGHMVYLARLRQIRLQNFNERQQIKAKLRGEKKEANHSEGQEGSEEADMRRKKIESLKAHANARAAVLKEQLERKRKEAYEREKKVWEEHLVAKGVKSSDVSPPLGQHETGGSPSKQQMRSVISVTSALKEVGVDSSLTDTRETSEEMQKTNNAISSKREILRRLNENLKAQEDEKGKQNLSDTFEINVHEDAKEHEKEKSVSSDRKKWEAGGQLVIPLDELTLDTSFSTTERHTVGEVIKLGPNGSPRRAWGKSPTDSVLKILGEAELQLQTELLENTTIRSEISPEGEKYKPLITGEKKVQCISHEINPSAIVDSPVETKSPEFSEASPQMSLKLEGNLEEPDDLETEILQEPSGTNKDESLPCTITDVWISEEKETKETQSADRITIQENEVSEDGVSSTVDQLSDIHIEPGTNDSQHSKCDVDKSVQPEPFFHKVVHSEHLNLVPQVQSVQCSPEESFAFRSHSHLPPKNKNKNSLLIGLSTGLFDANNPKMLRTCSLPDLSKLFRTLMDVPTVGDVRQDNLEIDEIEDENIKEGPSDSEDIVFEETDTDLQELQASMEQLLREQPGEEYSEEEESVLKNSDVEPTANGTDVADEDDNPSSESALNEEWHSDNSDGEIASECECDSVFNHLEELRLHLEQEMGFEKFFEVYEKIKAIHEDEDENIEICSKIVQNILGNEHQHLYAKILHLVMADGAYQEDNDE
UniProt Q96RT8, whole entry: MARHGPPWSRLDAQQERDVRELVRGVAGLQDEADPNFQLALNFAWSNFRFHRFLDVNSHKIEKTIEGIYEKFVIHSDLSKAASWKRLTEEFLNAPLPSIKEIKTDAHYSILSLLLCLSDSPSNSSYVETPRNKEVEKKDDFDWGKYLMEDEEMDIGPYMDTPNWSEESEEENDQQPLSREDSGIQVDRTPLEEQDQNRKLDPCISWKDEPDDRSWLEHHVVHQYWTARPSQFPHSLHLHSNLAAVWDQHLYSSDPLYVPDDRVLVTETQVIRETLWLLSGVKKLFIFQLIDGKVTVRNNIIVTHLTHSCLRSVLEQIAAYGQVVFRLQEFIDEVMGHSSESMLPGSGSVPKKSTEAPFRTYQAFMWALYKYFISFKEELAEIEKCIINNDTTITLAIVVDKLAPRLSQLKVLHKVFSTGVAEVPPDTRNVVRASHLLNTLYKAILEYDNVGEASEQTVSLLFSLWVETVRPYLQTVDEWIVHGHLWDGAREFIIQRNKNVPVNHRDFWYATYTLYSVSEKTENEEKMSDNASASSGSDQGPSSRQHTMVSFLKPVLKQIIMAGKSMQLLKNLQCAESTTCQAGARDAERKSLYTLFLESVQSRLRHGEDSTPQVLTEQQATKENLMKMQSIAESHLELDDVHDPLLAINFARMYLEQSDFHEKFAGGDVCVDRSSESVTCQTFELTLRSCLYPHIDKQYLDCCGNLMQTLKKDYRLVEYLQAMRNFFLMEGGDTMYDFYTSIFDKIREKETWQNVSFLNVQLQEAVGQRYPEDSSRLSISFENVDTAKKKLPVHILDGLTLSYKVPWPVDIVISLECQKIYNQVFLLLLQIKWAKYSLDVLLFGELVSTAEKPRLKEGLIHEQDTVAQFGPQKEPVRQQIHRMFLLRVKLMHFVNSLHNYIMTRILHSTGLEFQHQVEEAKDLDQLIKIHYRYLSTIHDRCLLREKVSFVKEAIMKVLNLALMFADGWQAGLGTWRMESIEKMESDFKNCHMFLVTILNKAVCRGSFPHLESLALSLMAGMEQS
UniProt Q96RE7: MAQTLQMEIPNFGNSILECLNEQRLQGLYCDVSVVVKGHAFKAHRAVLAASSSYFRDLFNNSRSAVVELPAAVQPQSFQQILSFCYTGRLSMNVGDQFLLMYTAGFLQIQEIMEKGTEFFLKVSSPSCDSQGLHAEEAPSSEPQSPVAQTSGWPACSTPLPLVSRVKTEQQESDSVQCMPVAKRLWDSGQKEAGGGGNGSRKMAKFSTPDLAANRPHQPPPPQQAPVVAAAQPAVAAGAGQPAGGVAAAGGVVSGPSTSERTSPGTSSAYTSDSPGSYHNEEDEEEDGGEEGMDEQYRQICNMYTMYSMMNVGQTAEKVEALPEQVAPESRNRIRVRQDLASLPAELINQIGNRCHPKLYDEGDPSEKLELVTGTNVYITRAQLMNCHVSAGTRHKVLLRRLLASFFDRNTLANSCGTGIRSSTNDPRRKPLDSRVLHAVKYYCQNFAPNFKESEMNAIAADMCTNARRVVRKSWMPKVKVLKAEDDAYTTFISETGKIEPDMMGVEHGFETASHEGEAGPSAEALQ
UniProt Q96GW9: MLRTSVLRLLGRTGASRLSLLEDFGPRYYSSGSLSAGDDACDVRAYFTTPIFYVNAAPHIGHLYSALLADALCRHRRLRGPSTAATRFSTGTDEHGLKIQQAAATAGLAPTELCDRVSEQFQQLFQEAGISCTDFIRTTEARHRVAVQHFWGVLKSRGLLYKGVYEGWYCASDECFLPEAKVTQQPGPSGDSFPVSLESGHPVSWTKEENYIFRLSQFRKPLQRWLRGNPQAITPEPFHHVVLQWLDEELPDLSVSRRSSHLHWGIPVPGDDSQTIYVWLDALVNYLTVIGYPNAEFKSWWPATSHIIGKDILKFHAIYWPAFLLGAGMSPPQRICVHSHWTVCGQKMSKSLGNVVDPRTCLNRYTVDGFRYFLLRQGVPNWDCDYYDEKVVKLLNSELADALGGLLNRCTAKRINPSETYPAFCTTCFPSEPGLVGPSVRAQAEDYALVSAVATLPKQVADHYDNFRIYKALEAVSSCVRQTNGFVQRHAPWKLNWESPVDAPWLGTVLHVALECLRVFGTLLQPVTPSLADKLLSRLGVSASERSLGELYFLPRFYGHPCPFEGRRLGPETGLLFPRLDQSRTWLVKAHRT
UniProt Q96L94: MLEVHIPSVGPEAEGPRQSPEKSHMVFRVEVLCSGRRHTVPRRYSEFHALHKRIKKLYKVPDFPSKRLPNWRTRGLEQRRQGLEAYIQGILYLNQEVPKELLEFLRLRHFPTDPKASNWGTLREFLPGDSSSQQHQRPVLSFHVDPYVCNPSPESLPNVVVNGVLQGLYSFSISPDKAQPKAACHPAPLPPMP
UniProt Q96HP0: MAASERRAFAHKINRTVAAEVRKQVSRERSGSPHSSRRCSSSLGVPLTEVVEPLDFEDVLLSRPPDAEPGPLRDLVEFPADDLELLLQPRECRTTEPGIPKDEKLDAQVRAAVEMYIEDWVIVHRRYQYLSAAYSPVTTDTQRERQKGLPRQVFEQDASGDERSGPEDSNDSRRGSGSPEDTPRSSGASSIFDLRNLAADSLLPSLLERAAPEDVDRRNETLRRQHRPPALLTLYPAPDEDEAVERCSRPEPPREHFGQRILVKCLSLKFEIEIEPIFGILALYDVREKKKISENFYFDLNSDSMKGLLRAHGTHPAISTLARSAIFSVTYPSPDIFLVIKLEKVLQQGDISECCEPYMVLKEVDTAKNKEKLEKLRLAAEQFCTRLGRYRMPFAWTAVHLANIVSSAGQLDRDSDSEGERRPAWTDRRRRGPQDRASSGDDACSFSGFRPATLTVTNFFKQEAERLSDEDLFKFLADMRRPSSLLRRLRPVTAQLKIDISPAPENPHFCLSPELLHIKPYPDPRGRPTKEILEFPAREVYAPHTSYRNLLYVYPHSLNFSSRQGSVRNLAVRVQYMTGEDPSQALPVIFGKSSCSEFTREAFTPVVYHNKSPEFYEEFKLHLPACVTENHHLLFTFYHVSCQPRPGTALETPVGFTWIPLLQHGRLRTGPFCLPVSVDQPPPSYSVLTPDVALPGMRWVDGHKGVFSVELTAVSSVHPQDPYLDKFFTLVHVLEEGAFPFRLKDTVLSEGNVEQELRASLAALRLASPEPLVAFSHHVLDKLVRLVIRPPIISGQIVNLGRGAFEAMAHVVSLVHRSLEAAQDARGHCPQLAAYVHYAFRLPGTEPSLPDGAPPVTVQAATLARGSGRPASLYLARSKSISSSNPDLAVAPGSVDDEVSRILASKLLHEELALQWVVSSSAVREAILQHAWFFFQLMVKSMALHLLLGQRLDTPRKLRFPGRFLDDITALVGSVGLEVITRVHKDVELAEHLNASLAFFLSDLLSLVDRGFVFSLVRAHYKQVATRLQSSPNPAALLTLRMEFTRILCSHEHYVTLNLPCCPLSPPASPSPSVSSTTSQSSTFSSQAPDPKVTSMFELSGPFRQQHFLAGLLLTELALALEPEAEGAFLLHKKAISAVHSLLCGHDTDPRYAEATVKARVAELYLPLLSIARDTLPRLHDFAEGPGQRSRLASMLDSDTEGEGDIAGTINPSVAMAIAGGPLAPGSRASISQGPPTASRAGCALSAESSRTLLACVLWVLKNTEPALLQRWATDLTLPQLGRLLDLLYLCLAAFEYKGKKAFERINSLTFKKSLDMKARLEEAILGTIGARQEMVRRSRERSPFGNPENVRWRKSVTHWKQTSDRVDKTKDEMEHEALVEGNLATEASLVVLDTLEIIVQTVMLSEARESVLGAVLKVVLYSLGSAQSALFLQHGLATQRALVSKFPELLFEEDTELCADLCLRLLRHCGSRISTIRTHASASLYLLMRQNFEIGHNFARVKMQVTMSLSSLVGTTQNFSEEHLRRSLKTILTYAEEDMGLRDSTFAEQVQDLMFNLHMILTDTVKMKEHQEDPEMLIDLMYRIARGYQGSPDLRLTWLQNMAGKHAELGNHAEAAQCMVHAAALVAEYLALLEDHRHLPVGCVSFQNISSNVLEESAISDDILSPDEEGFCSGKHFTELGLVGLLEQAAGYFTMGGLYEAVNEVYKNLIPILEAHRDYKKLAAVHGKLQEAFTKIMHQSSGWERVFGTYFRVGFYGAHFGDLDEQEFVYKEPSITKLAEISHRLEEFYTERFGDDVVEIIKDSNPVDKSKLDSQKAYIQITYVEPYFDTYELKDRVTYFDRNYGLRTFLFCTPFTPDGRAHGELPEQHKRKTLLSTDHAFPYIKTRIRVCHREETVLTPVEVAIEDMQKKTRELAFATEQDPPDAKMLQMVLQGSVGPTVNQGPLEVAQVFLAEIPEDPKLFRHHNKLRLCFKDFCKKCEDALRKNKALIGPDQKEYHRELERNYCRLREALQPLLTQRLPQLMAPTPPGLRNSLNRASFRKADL

These targets were tested with Cc1nc(Nc2ncc(C(=O)Nc3c(C)cccc3Cl)s2)cc(N2CCN(CCO)CC2)n1 [dasatinib] (assay: log2 fold change of tryptic peptide abundance, ligand vs vehicle (limited proteolysis) (log2 ratio); higher = more trypsin-susceptible (destabilized)). Conditions: ligand concentration: 5 uM; sample: K562 cleared lysate.

Target	log2 fold change
EAF1 (peptide sequence: PPVGPKTSPLK, peptide start residue: 151) (UniProt Q96JC9)	-0.153
UniProt Q96MI6 (peptide sequence: GSSSSPGAADASR, peptide start residue: 39)	0.0751
UniProt Q96I51 (peptide sequence: VLQVSCGR, peptide start residue: 176)	0.087
UniProt Q96JY0 (peptide sequence: MVVLDAGR, peptide start residue: 338)	0.096
DNAJC1 (peptide sequence: LLVELVQK, peptide start residue: 541) (UniProt Q96KC8)	0.113
UniProt Q96RR1 (peptide sequence: ALSPFAESSQLK, peptide start residue: 80)	-0.0758
TRIM47 (peptide sequence: GHELVPLEQER, peptide start residue: 211) (UniProt Q96LD4)	-0.593
SENP5 (peptide sequence: YGSLVPLSEKEVLGR, peptide start residue: 514) (UniProt Q96HI0)	-0.216
WDR92 (peptide sequence: CGTFGATSLQQR, peptide start residue: 70) (UniProt Q96MX6)	0.116
UniProt Q96HE9 (peptide sequence: DGPMQITVK, peptide start residue: 222)	0.41
NEK1 (peptide sequence: YGIPLAYK, peptide start residue: 315) (UniProt Q96PY6)	0.502
UniProt Q96Q45 (peptide sequence: EHPEAPVQR, peptide start residue: 74)	-0.734
C7orf26 (peptide sequence: LVSMAVAVCR, peptide start residue: 117) (UniProt Q96N11)	0.188
CNDP2 (peptide sequence: TVFGVEPDLTR, peptide start residue: 403) (UniProt Q96KP4)	0.059
ZNF830 (peptide sequence: RKAPDADDQDVK, peptide start residue: 103) (UniProt Q96NB3)	-0.54
UniProt Q96Q04 (peptide sequence: ARPEVAPEGEPGAPDSR, peptide start residue: 1168)	-0.973
VCPIP1 (peptide sequence: TLHKEELNMSKTER, peptide start residue: 701) (UniProt Q96JH7)	-0.868
TUBGCP5 (peptide sequence: KLDPCISWKDEPDDR, peptide start residue: 199) (UniProt Q96RT8)	-0.258
TRIB3 (peptide sequence: QMATALAHCHQHGLVLR, peptide start residue: 165) (UniProt Q96RU7)	0.402

Pulled one by one from above (2):
Target	log2 fold change
UniProt Q96JY0 (peptide sequence: MVVLDAGR, peptide start residue: 338)	0.096
UniProt Q96Q04 (peptide sequence: ARPEVAPEGEPGAPDSR, peptide start residue: 1168)	-0.973

The list goes on:

Target	log2 fold change
MARK4 (peptide sequence: NSDTHGTLGSGR, peptide start residue: 14) (UniProt Q96L34)	-0.775
NACC1 (peptide sequence: VKTEQQESDSVQCMPVAKR, peptide start residue: 166) (UniProt Q96RE7)	0.406
SDSL (peptide sequence: LQGEGAEVQLTGK, peptide start residue: 106) (UniProt Q96GA7)	0.143
MTMR9 (peptide sequence: GGGFEQEAHYPQWR, peptide start residue: 249) (UniProt Q96QG7)	-0.639
UniProt Q96GE4 (peptide sequence: SNGAQCPNEMLSKK, peptide start residue: 195)	-0.691
HIC2 (peptide sequence: QLLLQLNQQR, peptide start residue: 31) (UniProt Q96JB3)	-0.599
DOCK7 (peptide sequence: PGSFLLTSTSGR, peptide start residue: 1304) (UniProt Q96N67)	-0.876
UniProt Q96IX9 (peptide sequence: KHEDLQK, peptide start residue: 1410)	-0.0885
MARS2 (peptide sequence: FSTGTDEHGLK, peptide start residue: 88) (UniProt Q96GW9)	-0.151
COG3 (peptide sequence: DHCALVR, peptide start residue: 361) (UniProt Q96JB2)	-0.338
DDX11 (peptide sequence: ACPYYGSR, peptide start residue: 349) (UniProt Q96FC9)	0.177
UniProt Q96L94 (peptide sequence: ASNWGTLR, peptide start residue: 116)	0.869
UniProt Q96IK5 (peptide sequence: PALAQQAQGAR, peptide start residue: 14)	0.0996
GPATCH3 (peptide sequence: CSGVPEALDSDGQHPR, peptide start residue: 433) (UniProt Q96I76)	0.181
XPO6 (peptide sequence: MDRDLPSFTQNVHR, peptide start residue: 1090) (UniProt Q96QU8)	0.32
PGM2 (peptide sequence: IVLANDPDADRLAVAEK, peptide start residue: 317) (UniProt Q96G03)	-0.159
MCCC1 (peptide sequence: IIEEAPAPGIK, peptide start residue: 285) (UniProt Q96RQ3)	0.394
DOCK6 (peptide sequence: SPFGNPENVR, peptide start residue: 1343) (UniProt Q96HP0)	0.2
